Measured values reported in paper PMC5833375.
No constants are given. Whether binding was seen depends on the method and setting. In cells and extracts the contact can be indirect. Some results given as binding are weak or reduced against the parent protein; the word gives no strength. Tags and fused reporters may be left off the sequences shown.

By UniProt entry, the sequences of proteins in these tests, tags left out.
UniProt Q9UNE7: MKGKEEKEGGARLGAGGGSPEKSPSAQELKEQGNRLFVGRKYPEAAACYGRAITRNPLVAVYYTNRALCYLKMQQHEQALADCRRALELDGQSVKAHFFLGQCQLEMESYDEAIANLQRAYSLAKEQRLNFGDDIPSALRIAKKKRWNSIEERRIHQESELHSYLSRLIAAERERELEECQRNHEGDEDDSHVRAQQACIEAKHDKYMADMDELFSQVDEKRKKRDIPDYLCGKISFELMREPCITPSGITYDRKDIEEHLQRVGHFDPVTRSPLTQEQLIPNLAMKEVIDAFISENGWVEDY
UniProt Q14258: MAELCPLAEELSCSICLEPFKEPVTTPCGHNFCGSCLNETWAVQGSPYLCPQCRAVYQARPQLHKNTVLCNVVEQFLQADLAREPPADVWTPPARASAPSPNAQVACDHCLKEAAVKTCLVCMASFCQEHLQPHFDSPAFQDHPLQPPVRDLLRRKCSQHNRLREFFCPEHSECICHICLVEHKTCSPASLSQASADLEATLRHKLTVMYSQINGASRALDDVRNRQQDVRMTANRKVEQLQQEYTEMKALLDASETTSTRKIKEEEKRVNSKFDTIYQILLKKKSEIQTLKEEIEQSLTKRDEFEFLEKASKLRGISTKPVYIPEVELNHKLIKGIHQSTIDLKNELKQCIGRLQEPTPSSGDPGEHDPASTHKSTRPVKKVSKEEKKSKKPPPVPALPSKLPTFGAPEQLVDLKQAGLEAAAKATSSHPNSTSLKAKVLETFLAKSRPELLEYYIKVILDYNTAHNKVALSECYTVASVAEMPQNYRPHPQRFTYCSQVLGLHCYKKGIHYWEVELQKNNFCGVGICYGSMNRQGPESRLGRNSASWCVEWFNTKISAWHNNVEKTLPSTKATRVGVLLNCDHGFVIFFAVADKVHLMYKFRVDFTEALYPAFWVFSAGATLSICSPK

B1: FLAG-tagged HERC5 (enzyme, UniProt Q9UII4 1-1024)
chain: MERRSRRKSRRNGRSTAGKAAATQPAKSPGAQLWLFPSAAGLHRALLRRVEVTRQLCCSPGRLAVLERGGAGVQVHQLLAGSGGARTPKCIKLGKNMKIHSVDQGAEHMLILSSDGKPFEYDNYSMKHLRFESILQEKKIIQITCGDYHSLALSKGGELFAWGQNLHGQLGVGRKFPSTTTPQIVEHLAGVPLAQISAGEAHSMALSMSGNIYSWGKNECGQLGLGHTESKDDPSLIEGLDNQKVEFVACGGSHSALLTQDGLLFTFGAGKHGQLGHNSTQNELRPCLVAELVGYRVTQIACGRWHTLAYVSDLGKVFSFGSGKDGQLGNGGTRDQLMPLPVKVSSSEELKLESHTSEKELIMIAGGNQSILLWIKKENSYVNLKRTIPTLNEGTVKRWIADVETKRWQSTKREIQEIFSSPACLTGSFLRKRRTTEMMPVYLDLNKARNIFKELTQKDWITNMITTCLKDNLLKRLPFHSPPQEALEIFFLLPECPMMHISNNWESLVVPFAKVVCKMSDQSSLVLEEYWATLQESTFSKLVQMFKTAVICQLDYWDESAEENGNVQALLEMLKKLHRVNQVKCQLPESIFQVDELLHRLNFFVEVCRRYLWKMTVDASENVQCCVIFSHFPFIFNNLSKIKLLHTDTLLKIESKKHKAYLRSAAIEEERESEFALRPTFDLTVRRNHLIEDVLNQLSQFENEDLRKELWVSFSGEIGYDLGGVKKEFFYCLFAEMIQPEYGMFMYPEGASCMWFPVKPKFEKKRYFFFGVLCGLSLFNCNVANLPFPLALFKKLLDQMPSLEDLKELSPDLGKNLQTLLDDEGDNFEEVFYIHFNVHWDRNDTNLIPNGSSITVNQTNKRDYVSKYINYIFNDSVKAVYEEFRRGFYKMCDEDIIKLFHPEELKDVIVGNTDYDWKTFEKNARYEPGYNSSHPTIVMFWKAFHKLTLEEKKKFLVFLTGTDRLQMKDLNNMKITFCCPESWNERDPIRALTCFSVLFLPKYSTMETVEEALQEAINNNRGFG

Biological target: human wild-type CHIP N-terminally tagged with Xpress-6x-His (carboxyl terminus of Hsp70-interacting protein) (human) (UniProt Q9UNE7)
Assay: co-IP; HEK293 cells co-transfected (also with UBE1L and Myc-UbcH8; Fig. 2b also with FLAG-ISG15); lysates immunoprecipitated with anti-Xpress antibody and Protein A-Sepharose, 4 °C, washed with 50 mM Tris pH 7.5, 1% Nonidet P40, 150 mM NaCl, 10% glycerol; western blot with anti-HERC5 or anti-Myc

| Molecule | binding |
| --- | --- |
| Myc-tagged EFP (from UniProt Q14258 1-630) (enzyme) | binds |
| B1 | binds |
